According to publication PMC4480970:
No constants are given. Whether binding was seen depends on the method and setting. Binding seen in cells or lysates may run through a third protein. Some binding calls cover weakened binding; strength is not graded here. For part of these data: Sequences can lack the tags named with a protein. Blank lines part the entries; values can stand above or below the binder they belong to.

Amino acid sequences for entries named in this document (tags omitted).
UniProt O09106: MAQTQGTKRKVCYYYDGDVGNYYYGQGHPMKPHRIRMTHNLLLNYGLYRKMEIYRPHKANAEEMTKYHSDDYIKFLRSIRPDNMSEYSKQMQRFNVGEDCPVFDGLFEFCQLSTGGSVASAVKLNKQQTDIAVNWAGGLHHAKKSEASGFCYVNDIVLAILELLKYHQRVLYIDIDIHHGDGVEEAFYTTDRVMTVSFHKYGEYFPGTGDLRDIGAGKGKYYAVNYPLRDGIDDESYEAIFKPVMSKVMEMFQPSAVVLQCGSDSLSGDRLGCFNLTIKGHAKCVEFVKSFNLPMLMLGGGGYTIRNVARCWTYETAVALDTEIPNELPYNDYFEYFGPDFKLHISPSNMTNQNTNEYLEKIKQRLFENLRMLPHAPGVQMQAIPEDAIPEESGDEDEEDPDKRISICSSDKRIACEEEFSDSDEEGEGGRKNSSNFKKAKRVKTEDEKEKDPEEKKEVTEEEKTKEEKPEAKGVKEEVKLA
UniProt P70288: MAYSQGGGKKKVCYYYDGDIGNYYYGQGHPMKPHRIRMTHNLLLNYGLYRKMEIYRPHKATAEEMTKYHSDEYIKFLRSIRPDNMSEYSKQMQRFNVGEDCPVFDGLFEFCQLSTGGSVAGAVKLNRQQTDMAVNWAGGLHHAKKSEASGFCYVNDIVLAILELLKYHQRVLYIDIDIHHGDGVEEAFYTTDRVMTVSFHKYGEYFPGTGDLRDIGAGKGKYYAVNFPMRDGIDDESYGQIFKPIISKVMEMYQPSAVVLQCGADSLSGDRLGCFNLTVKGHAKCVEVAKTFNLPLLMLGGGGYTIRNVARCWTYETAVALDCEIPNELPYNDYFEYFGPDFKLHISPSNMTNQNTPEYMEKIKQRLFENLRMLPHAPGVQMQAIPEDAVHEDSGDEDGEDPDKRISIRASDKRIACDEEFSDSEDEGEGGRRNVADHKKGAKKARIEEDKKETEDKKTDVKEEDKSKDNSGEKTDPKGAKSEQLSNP

Columns and labels:
FLAG-tagged HDAC1 = FLAG-tagged HDAC1 (UniProt O09106); test: co-IP; HA-Foxp3 or its deletion mutants and FLAG-HDAC1, 2 or 3 co-transfected in HEK293T; lysis in 0.4 M NaCl, 1% Triton X-100, diluted with hypotonic buffer; immunoprecipitation with anti-FLAG M2 agarose, 2 h at 4°C, washes with 0.5 M NaCl; blot with anti-HA
FLAG-tagged HDAC2 = FLAG-tagged HDAC2 (UniProt P70288); test: as above
FLAG-tagged HDAC3 = target: T1, FLAG-tagged HDAC3 (UniProt O88895); test: as above
T1 sequence: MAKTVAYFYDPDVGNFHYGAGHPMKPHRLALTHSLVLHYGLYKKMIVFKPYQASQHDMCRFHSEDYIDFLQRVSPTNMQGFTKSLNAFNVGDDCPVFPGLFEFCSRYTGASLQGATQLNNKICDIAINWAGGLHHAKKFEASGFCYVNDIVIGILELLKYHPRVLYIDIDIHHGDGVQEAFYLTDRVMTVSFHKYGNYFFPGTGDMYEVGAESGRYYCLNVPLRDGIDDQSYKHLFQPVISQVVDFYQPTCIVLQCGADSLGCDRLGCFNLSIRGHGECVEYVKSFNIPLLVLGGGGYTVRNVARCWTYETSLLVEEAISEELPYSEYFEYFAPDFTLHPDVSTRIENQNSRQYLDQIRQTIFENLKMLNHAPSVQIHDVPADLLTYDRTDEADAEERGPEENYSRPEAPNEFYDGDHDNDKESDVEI

[1] = target: HA-HDAC1 (in primary T cells) (UniProt O09106); test: co-IP; primary CD4+ T cells co-transduced with retrovirus carrying FLAG-Foxp3 and HA-HDAC1 or 2 (IP with anti-HA affinity gel), or HA-Foxp3 and FLAG-HDAC3 (IP with anti-FLAG M2 agarose); blots with anti-HA or anti-FLAG
[2] = target: HA-HDAC2 (in primary T cells) (UniProt P70288); test: as above
[3] = target: T2, FLAG-HDAC3 (in primary T cells) (UniProt O88895); test: as above
T2 sequence: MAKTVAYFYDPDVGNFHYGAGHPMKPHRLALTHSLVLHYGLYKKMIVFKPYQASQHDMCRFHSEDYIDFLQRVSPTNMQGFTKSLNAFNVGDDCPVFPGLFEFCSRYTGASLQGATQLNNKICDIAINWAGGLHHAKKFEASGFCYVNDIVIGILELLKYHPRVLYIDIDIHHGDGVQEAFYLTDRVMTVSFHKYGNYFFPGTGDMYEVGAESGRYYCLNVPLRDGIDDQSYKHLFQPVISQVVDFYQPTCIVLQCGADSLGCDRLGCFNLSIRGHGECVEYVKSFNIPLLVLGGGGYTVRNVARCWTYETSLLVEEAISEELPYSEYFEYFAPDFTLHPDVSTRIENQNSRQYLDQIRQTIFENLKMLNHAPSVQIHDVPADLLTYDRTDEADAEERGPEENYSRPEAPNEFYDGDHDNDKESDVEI

GST-tagged HDAC1 = GST-tagged HDAC1 (UniProt O09106); test: pull-down; 5 μl in vitro translated Foxp3 incubated with 10 μg affinity purified GST-HDAC in BC100 buffer (20 mM Tris pH 7.9, 100 mM NaCl, 10% glycerol, 0.2 mM EDTA, 0.1% Triton X-100) overnight at 4°C; pulled down with glutathione sepharose 4B; blot with anti-Foxp3 and anti-GST; only the target purified
GST-tagged HDAC2 = GST-tagged HDAC2 (UniProt P70288); test: as above
GST-tagged HDAC3 = target: T3, GST-tagged HDAC3 (UniProt O88895); test: as above
T3 sequence: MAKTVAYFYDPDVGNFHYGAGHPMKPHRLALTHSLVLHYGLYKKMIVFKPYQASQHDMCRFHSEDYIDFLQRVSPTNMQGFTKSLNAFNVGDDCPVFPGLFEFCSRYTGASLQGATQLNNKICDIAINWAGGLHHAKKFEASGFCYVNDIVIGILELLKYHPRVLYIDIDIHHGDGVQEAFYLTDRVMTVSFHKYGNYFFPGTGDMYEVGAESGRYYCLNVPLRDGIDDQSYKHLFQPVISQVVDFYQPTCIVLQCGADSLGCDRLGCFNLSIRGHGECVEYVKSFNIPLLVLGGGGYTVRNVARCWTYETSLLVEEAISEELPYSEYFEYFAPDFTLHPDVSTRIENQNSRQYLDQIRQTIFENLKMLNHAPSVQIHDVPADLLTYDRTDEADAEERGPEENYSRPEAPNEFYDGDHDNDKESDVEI

binding (FLAG-tagged HDAC1): binds | binding (FLAG-tagged HDAC2): binds | binding (FLAG-tagged HDAC3): binds
B1: HA-tagged Foxp3 (wild type) (protein, UniProt Q99JB6 1-429)
chain: MPNPRPAKPMAPSLALGPSPGVLPSWKTAPKGSELLGTRGSGGPFQGRDLRSGAHTSSSLNPLPPSQLQLPTVPLVMVAPSGARLGPSPHLQALLQDRPHFMHQLSTVDAHAQTPVLQVRPLDNPAMISLPPPSAATGVFSLKARPGLPPGINVASLEWVSREPALLCTFPRSGTPRKDSNLLAAPQGSYPLLANGVCKWPGCEKVFEEPEEFLKHCQADHLLDEKGKAQCLLQREVVQSLEQQLELEKEKLGAMQAHLAGKMALAKAPSVASMDKSSCCIVATSTQGSVLPAWSAPREAPDGGLFAVRRHLWGSHGNSSFPEFFHNMDYFKYHNMRPPFTYATLIRWAILEAPERQRTLNEIYHWFTRMFAYFRNHPATWKNAIRHNLSLHKCFVRVESEKGAVWTVDEFEFRKKRSQRPNKCSNPCP

binding (GST-tagged HDAC1): binds | binding (GST-tagged HDAC2): binds | binding (GST-tagged HDAC3): binds
B4: In vitro translated Foxp3 (protein, UniProt Q99JB6 1-429)
chain: MPNPRPAKPMAPSLALGPSPGVLPSWKTAPKGSELLGTRGSGGPFQGRDLRSGAHTSSSLNPLPPSQLQLPTVPLVMVAPSGARLGPSPHLQALLQDRPHFMHQLSTVDAHAQTPVLQVRPLDNPAMISLPPPSAATGVFSLKARPGLPPGINVASLEWVSREPALLCTFPRSGTPRKDSNLLAAPQGSYPLLANGVCKWPGCEKVFEEPEEFLKHCQADHLLDEKGKAQCLLQREVVQSLEQQLELEKEKLGAMQAHLAGKMALAKAPSVASMDKSSCCIVATSTQGSVLPAWSAPREAPDGGLFAVRRHLWGSHGNSSFPEFFHNMDYFKYHNMRPPFTYATLIRWAILEAPERQRTLNEIYHWFTRMFAYFRNHPATWKNAIRHNLSLHKCFVRVESEKGAVWTVDEFEFRKKRSQRPNKCSNPCP

The remaining lines, values behind:

B2: FLAG-Foxp3 (in primary T cells) (protein, UniProt Q99JB6 1-429)
chain: MPNPRPAKPMAPSLALGPSPGVLPSWKTAPKGSELLGTRGSGGPFQGRDLRSGAHTSSSLNPLPPSQLQLPTVPLVMVAPSGARLGPSPHLQALLQDRPHFMHQLSTVDAHAQTPVLQVRPLDNPAMISLPPPSAATGVFSLKARPGLPPGINVASLEWVSREPALLCTFPRSGTPRKDSNLLAAPQGSYPLLANGVCKWPGCEKVFEEPEEFLKHCQADHLLDEKGKAQCLLQREVVQSLEQQLELEKEKLGAMQAHLAGKMALAKAPSVASMDKSSCCIVATSTQGSVLPAWSAPREAPDGGLFAVRRHLWGSHGNSSFPEFFHNMDYFKYHNMRPPFTYATLIRWAILEAPERQRTLNEIYHWFTRMFAYFRNHPATWKNAIRHNLSLHKCFVRVESEKGAVWTVDEFEFRKKRSQRPNKCSNPCP
binding [1]: binds | binding [2]: binds

B3: HA-Foxp3 (in primary T cells) (protein, UniProt Q99JB6 1-429)
chain: MPNPRPAKPMAPSLALGPSPGVLPSWKTAPKGSELLGTRGSGGPFQGRDLRSGAHTSSSLNPLPPSQLQLPTVPLVMVAPSGARLGPSPHLQALLQDRPHFMHQLSTVDAHAQTPVLQVRPLDNPAMISLPPPSAATGVFSLKARPGLPPGINVASLEWVSREPALLCTFPRSGTPRKDSNLLAAPQGSYPLLANGVCKWPGCEKVFEEPEEFLKHCQADHLLDEKGKAQCLLQREVVQSLEQQLELEKEKLGAMQAHLAGKMALAKAPSVASMDKSSCCIVATSTQGSVLPAWSAPREAPDGGLFAVRRHLWGSHGNSSFPEFFHNMDYFKYHNMRPPFTYATLIRWAILEAPERQRTLNEIYHWFTRMFAYFRNHPATWKNAIRHNLSLHKCFVRVESEKGAVWTVDEFEFRKKRSQRPNKCSNPCP
binding [3]: binds
